# Test results taken from PubChem BioAssay AID1671190 (National Center for Advancing Translational Sciences (NCATS), 2021).
# By UniProt entry, the sequences of proteins in these tests, tags left out.
# UniProt P18054, whole entry, looked up: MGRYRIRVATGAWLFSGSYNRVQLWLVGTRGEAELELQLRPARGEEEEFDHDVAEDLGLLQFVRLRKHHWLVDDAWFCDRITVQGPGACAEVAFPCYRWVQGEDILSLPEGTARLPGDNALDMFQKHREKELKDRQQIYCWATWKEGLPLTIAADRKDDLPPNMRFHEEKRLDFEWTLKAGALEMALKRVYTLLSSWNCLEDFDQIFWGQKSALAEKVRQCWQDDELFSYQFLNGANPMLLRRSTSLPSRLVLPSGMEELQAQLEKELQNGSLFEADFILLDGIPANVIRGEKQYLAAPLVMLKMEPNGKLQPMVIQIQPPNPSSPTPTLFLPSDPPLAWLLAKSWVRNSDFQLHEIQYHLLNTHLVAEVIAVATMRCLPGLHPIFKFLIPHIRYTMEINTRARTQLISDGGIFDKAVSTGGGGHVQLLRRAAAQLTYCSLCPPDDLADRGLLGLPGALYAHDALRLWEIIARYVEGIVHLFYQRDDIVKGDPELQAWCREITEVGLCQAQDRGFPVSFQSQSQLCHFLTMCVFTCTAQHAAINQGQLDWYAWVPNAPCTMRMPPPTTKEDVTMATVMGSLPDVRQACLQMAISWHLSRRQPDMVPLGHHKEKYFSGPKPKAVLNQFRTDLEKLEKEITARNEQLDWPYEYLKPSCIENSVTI
# Out of some 580,000 compounds screened, about 6,100 (1.1%) were called active. Inconclusive means that the source gave no clear call. Such entries were picked first, then a sample of the others. Calls follow the shape of the dose curve; as a rule, active = well fitted inhibition curve with a large enough effect; inconclusive = small, poorly fitted or top-dose-only effect, or another doubt; inactive = no such curve, though single readings can be large or run the other way. Potencies beside an inconclusive call are fits to weak or partial responses and may not hold up.
# Target: Polyunsaturated fatty acid lipoxygenase ALOX12 (Homo sapiens) (UniProt P18054)
# Assay: Primary qHTS assay for inhibitors of human arachidonate 12S-lipoxygenase (ALOX12): Round 2
# Conditions: purified 12hLO, xylenol orange hydroperoxide absorbance; series mostly up to 108 µM
# In short: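 Purified human 12hLO (150 nM final) in 25 mM Hepes, 0.01% Triton X-100, pH 7.0 was preincubated 15 min at room temperature with compound. Then 40 uM arachidonic acid was added, 30 min. Hydroperoxide was read by Fe-XO absorbance ratio 573/405 nm.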
# Potency is read from the fitted curve at half-maximal effect.
row,Structure (SMILES),Potency
1,C#C[C@H]1CN2CC[C@H]1C[C@@H]2CNCc1ccc(N(C)C)cc1,inactive
2,CC(C)(C)C(=O)NC(Sc1nccc(SC(NC(=O)C(C)(C)C)C(Cl)(Cl)Cl)n1)=C(Cl)Cl (stereo unspecified),"inconclusive: 0.562 µM [inhibitor, full curve]"
3,CC(N)Cc1c[nH]c2ccccc12 (stereo unspecified),"inconclusive: 0.501 µM [inhibitor, full curve, poor fit]"
4,COc1ccc(C=C2C(=O)N(C)C(=O)N(C)C2=O)cc1CSc1ccccn1,"inconclusive: 22.4 µM [inhibitor, single point]"
5,N#Cc1ncc(N=Cc2ccc(N(CCCl)CCCl)cc2)s1,"inconclusive: 56.2 µM [inhibitor, partial curve, poor fit]"
6,CC(C)c1ccc(N2C(=O)NC(=O)/C(=C\c3cnc(-c4ccccc4)nc3)C2=O)cc1,"inconclusive: 3.55 µM [inhibitor, full curve, poor fit]"
7,Cc1nn(Cc2ccccc2Cl)c(Cl)c1C(=O)OCC(=O)NC(=O)NC1CCCCC1,inactive
8,COC(=O)C1=C(c2ccc3ccccc3c2)C[C@@H]2CC[C@H]1N2C(=O)NCc1ccco1,"inconclusive: 44.7 µM [inhibitor, partial curve, poor fit]"
9,C#C[C@@]1(O)CCC2C3CCC4=C/C(=N/OCC(=O)NC(C(=O)NC(CC(C)C)C(=O)O)C(C)C)CC[C@]4(C)C3CC[C@@]21C (stereo partly specified),"inconclusive: 10 µM [inhibitor, partial curve, poor fit]"
10,O=C(NC1CCCCC1)[C@H]1CN2CC[C@H]1C[C@@H]2Cn1cc(-c2ccccc2)nn1,inactive
11,Oc1ccc(O)c2c1C1(Cl)C(Cl)=C(Cl)C2(Cl)C1(Cl)Cl,"inconclusive: 50.1 µM [inhibitor, partial curve, poor fit]"
12,c1ccc(-c2ccc(-c3n(-c4ccccn4)c4ccccc4[n+]3-c3ccccn3)cc2)cc1,"inconclusive: 79.4 µM [inhibitor, single point]"
13,CCN(CCCl)c1cc(CN(C)C)cc(NC(=O)c2ccc(C(=O)Nc3cc(CN(C)C)cc(N(CC)CCCl)c3)cc2)c1,"inconclusive: 39.8 µM [inhibitor, partial curve]"
14,C(=C/c1ccccc1)/CN1CCN(CCOC(c2ccccc2)c2ccccc2)CC1,"inconclusive: 8.91 µM [inhibitor, partial curve, poor fit]"
15,Fc1ccc(CNCCc2ccc3c(c2)OCO3)cc1,"inconclusive: 0.251 µM [inhibitor, full curve, poor fit]"
16,C[C@]12CC[C@@H]3c4ccc(O)c(O)c4CC[C@H]3[C@@H]1CC[C@@H]2O,active: 5.01 µM

# Some of the entries above in a different format.
row	Structure (SMILES)	Potency
1	C#C[C@H]1CN2CC[C@H]1C[C@@H]2CNCc1ccc(N(C)C)cc1	inactive
2	CC(C)(C)C(=O)NC(Sc1nccc(SC(NC(=O)C(C)(C)C)C(Cl)(Cl)Cl)n1)=C(Cl)Cl (stereo unspecified)	inconclusive: 0.562 µM [inhibitor, full curve]
